Data on 108 sequences can be found in PubChem BioAssay AID1347426 (Functional Genomics Laboratory (NCATS/FGL), 2020).

The campaign covered roughly 31,000 sequences. About 1,400 (4.5%) were called active.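 Rule for the calls: active = median seed-adjusted z-score above 1 or below -1; inactive = the rest.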 Some of the results follow.

The nature of the assay: Novel Modifiers of Survival Motor Neuron (SMN) Protein: Gene Identification via Genome-wide siRNA Screen.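 Note: luminescence tracks full-length SMN protein made from the SMN2 reporter.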 As to conditions: HEK293T SMN2-luciferase reporter, siRNA knockdown, 72 h; actives lie on both sides. The essentials: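 HEK293T cells stably carrying an SMN2 promoter/splicing cassette–luciferase reporter were reverse-transfected with 1 pmol siRNA per well (druggable-genome library, 3 siRNAs per gene) and grown 72 h at 37 °C. Luminescence, normalized to negative-control siRNA and log10-transformed, was scored as MAD.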
On the technique in general: A reporter such as luciferase makes a cellular process visible.
As for GCCGCUUUCGGAAUAAGAUTT against DGKZ, the median seed-adjusted z-score was inactive: 0. Consider GCAAUUACCUGGUUGAUGUTT against ABAT, for which the median seed-adjusted z-score is inactive: 0.0191. As to GAAAAACGGUGAACGAGUUTT against IGF2BP1, the median seed-adjusted z-score was inactive: -0.993. Consider GGUUAAUCAUCUCAUUUUATT against ABHD5, for which the median seed-adjusted z-score is inactive: 0.131.

Take GGCUCCAAAUCGCAUCGUATT against CADPS: the median seed-adjusted z-score was inactive: 0.551. On to GUACAUGCUUUGUUAGGGATT against ISL1, for which the median seed-adjusted z-score was inactive: 0.138. With CUUAUACGCUGGAUUCGUATT against NRK, the median seed-adjusted z-score is inactive: 0.0687. In the case of CGAUAUAGAUCCUAAUAAUTT against GNPDA2, the median seed-adjusted z-score was inactive: -0.422.

Turning to CUGCUAAGCCUGUAAGUGATT against UBE2U, the median seed-adjusted z-score was inactive: -0.0545. In the case of GCAUGUCUCUGUCUUCUUUTT against THRB, the median seed-adjusted z-score is inactive: 0.324. Consider GCAUGUCUAUGCCUACUCUTT against CSF3R, for which the median seed-adjusted z-score is inactive: -0.491. Turning to GAAUCUUGCUUUAACAUGATT against ANXA7, the median seed-adjusted z-score is inactive: 0.671.

In the case of GGACCGAAACAGGAUGUCATT against GNA14, the median seed-adjusted z-score is inactive: 0.363. As for GGCGACUUUUUAUGAUACATT against CIDEC, the median seed-adjusted z-score was inactive: 0.189. For the sequence GGAAUGCAGUCGACCUACATT against GNPDA1, the median seed-adjusted z-score was inactive: 0.0252. CUUCAUUGCUUACCAGAAATT against CD99: the median seed-adjusted z-score is inactive: 0. Turning to GGCUUCAUCCAGAAAGGAATT against ZNF350, the median seed-adjusted z-score was inactive: 0.133.

On to GGCUACAGAUGUGAAAGAUTT against PRDM14, for which the median seed-adjusted z-score was inactive: 0.316. As for CGACCUUUCUAUCCAGACUTT against ZFP90, the median seed-adjusted z-score was inactive: 0.

Turning to UCUGUUUUGUAAUUUAAGATT against CLDN4, the median seed-adjusted z-score was inactive: -0.0241. As to CGAACCAUUUCAUCACGUATT against MARS2, the median seed-adjusted z-score was inactive: -0.00523.

Regarding GAGAUCGGAUGGUACGUUUTT against CCBL2, the median seed-adjusted z-score was inactive: 0.184. For the sequence GGCUCUUACGGCAAGGUGATT against STK11, the median seed-adjusted z-score was inactive: 0.348.

GGCUGUAAUAUAAAUCGAATT against CENPE: the median seed-adjusted z-score is inactive: 0.298.

As to GACAAUGACCAAAUCAAUATT against TGFBR3, the median seed-adjusted z-score is inactive: 0.285. As for GCUCCUCACUUACCCAGUATT against ZNF354C, the median seed-adjusted z-score is inactive: 0.648. Turning to GGAUACCAGUGGAGGAUAATT against MPP7, the median seed-adjusted z-score is inactive: 0.163. As for GCUUCUGAAAUGAACCGAATT against DDHD2, the median seed-adjusted z-score is inactive: 0.447.

For GUCCUACGCCUGUUACUAUTT against LGMN, the median seed-adjusted z-score is inactive: 0.391. In the case of GCAAAGUGCGCUCAUUUUATT against NEUROG3 it was inactive: 0.212; in that of GCACGGAGCUGAACGAUGATT against CDH23, inactive: -0.918. For AGCUUUUGUUGAGAGUUCATT against YY1 the value was active: 1.94; for GUGACUAACAGUAACCCUATT against HLCS, inactive: 0.0646; for GCACCAUUCUAACAAUGGATT against NANS, active: -1.54. Consider CCAAUUCUCUACGUCUUUATT against FPR3, for which the median seed-adjusted z-score is inactive: -0.605. Consider GGCACUCCGUUUCCCAAGATT against MOBKL2A, for which the median seed-adjusted z-score was inactive: 0.268. For the sequence GAAUGUCCAUAUUGUAGUATT against FANCL, the median seed-adjusted z-score is inactive: -0.0823. For GGUUGUUGCUGGAUGCUCUTT against RARRES3 the value was inactive: -0.033; for CAAGUUUCACGUCAAGUUUTT against KCNT1, inactive: 0.379. As for GCUGGAUUCCAUUAAAACATT against CA2, the median seed-adjusted z-score is inactive: 0.328. With ACAUCGUCCACUUCCAGUATT against OAZ2, the median seed-adjusted z-score was inactive: 0.66. As for AGUCUGUUGGUGCUAAAAATT against TIMM8B, the median seed-adjusted z-score is inactive: -0.853. For GUGUCGUCGUAGAAAGAGATT against WEE1 the value was active: -4.05. For GCUUACUUACAGAAAUCAATT against STX19, the median seed-adjusted z-score is inactive: 0.143. Regarding CGAUAUUUAUCCUUACCUATT against SLC9A2, the median seed-adjusted z-score is active: -1.02. For the sequence UCAUCAUGGUCAUCGCUUUTT against RHO, the median seed-adjusted z-score was inactive: -0.267. Turning to CCUUACUGUUUUUCACGAATT against APC, the median seed-adjusted z-score is inactive: 0.154. As for CAUUCAUCUCAAUAAUUGATT against IL5RA, the median seed-adjusted z-score was inactive: -0.357. In the case of CUGUUGGAAUGGACUAAAATT against MXD3 it was inactive: 0.482; in that of ACUUAUCCCAGAUUCCUGATT against BMP6, inactive: 0.301; in that of GUGUGAAACUAUUCGACCATT against PHTF2, inactive: 0.389. In the case of CGGAUGAACAAGAAAGUUUTT against SGTB, the median seed-adjusted z-score was inactive: -0.0165. Take GGUUUUGGAUUGCAUAGAATT against DGKB: the median seed-adjusted z-score is inactive: 0.325. With GUAAAUGAAUUUCGAAGAATT against PIK3CB, the median seed-adjusted z-score is inactive: 0.0911.

Regarding CGUUAUGGUUUUAAUACUATT against MLSTD2, the median seed-adjusted z-score was inactive: -0.294. GGAGAAGGGUCAAUGACGATT against SNX6: the median seed-adjusted z-score is inactive: 0. With CUACAUCACCAGACAAUUUTT against TM7SF4, the median seed-adjusted z-score was inactive: 0.0246.

Turning to GAAUCGACCUAGCAAGUGUTT against DDX52, the median seed-adjusted z-score was inactive: -0.2. As to CGGCACAUCUGGAGCUGAATT against DRD3, the median seed-adjusted z-score was inactive: 0.0447. For the sequence CGAGAGACCCUCUAUCCAATT against ATP6V0D2, the median seed-adjusted z-score was inactive: -0.0346.

On to GGGACAGGCUGCAAAGAAATT against AARS2, for which the median seed-adjusted z-score was inactive: -0.52. With CCAUUCCGGUGAUACACGATT against BAG3, the median seed-adjusted z-score was inactive: -0.443. CCAGUAUACUUCUUAGAAATT against MCL1: the median seed-adjusted z-score was inactive: 0.225. In the case of CCGGGACAAUGAAUUCUCATT against KCNK13 it was inactive: -0.0924. Regarding GGGCAGAACUGUACAAGGATT against NOL6, the median seed-adjusted z-score is inactive: -0.751. For GGCUGUCCGCUUAAAUCCATT against IFIT1 the value was inactive: -0.489; for GCAAACCGGUGGAUAUUGATT against ATAD2B, inactive: 0.0192; for CCACGUGACUUUCAACAAUTT against NR4A2, inactive: -0.654.

With GGUGUGCGGUUCAUCUUCATT against ILVBL, the median seed-adjusted z-score was inactive: 0.343.

As to GUUUAUGUCUCAGCUCAGATT against NOL6, the median seed-adjusted z-score was inactive: -0.751. Take AGUACUUCCUGACGAUGGATT against CST6: the median seed-adjusted z-score was inactive: -0.237. CAGUUUGCUCUAUCAGUAATT against PSTPIP2: the median seed-adjusted z-score was inactive: 0.0136.

With CCAAUACCCUGCUACCUGATT against LTA4H, the median seed-adjusted z-score was inactive: -0.742. As for GAACCAACUGGAUUAAAGATT against IYD, the median seed-adjusted z-score is inactive: -0.572. As to GCUGACUUCCCUACACCUATT against CD80, the median seed-adjusted z-score was inactive: 0.553.

Take GGAAAACGACAACACGAAATT against FREQ: the median seed-adjusted z-score is inactive: -0.353. Consider GAUCAAACUAGAACUCAUATT against COX7C, for which the median seed-adjusted z-score was inactive: -0.461.

For the sequence CAUCCUCUUUAUACCGGAATT against GLYATL2, the median seed-adjusted z-score was inactive: -0.947. For GGAUAGAAAGAAGCCUCUATT against ZDHHC1, the median seed-adjusted z-score is inactive: 0. For CCAUGAUCGUCCAUAAGAATT against FADS2 the value was inactive: 0.0769; for GCGUGAACGUGAAUCCGUUTT against UBR5, inactive: 0.114; for GGCUUUUUCUCCUCCGUGATT against GRB10, inactive: -0.0341. Consider GCAUCAGUUAUGUGGUUUATT against SLC25A24, for which the median seed-adjusted z-score was inactive: -0.0384. In the case of GCUGAUAUAUCGGCAGUAUTT against AP4S1 it was inactive: -0.498. Consider CAAACACUGGAGAUCAAAATT against GZMK, for which the median seed-adjusted z-score was inactive: -0.303. In the case of AGAACUUGAUUCUCAAAUATT against GTPBP3 it was inactive: -0.197. For GCGUGUUGCCUUUCCAAAUTT against P2RY8 the value was inactive: -0.136. On to GGAGGCUUCUUUAUGAAUUTT against FXYD4, for which the median seed-adjusted z-score is inactive: -0.0447. For the sequence CAGUGAACCGAGUCUUUAATT against PLXNA3, the median seed-adjusted z-score is inactive: 0.255. On to CAUGAAUCAAUGUCUGGUATT against PLAUR, for which the median seed-adjusted z-score was inactive: -0.118. With GGAACACUUUGGUCUUAGUTT against GALK2, the median seed-adjusted z-score is inactive: 0. As to CCUAUGGACAAGUCUAUAATT against MAP4K4, the median seed-adjusted z-score is inactive: 0.474. Take AGUCCACAAAUGUCACUGATT against CSRP3: the median seed-adjusted z-score was inactive: 0.15. Consider UGUCCUGCCUUUUAACGUATT against CDKN2A, for which the median seed-adjusted z-score was inactive: -0.0748. In the case of GGAAUUAUAUGACAAAGGATT against DNAJA1 it was inactive: -0.00548; in that of ACAUCGAUCCUUUCACCUATT against EPHB2, inactive: -0.325. Regarding GGUCCUUGGAGGUCGAAAATT against PGR, the median seed-adjusted z-score was inactive: -0.0249. AGAAAUAUGUAAUCGCUAUTT against HDHD1A: the median seed-adjusted z-score is inactive: -0.937. Regarding CCUUUGCACCUAUCUCUGATT against NEK8, the median seed-adjusted z-score is inactive: -0.099. Take GCAUUUACGUGGAAAAUGATT against ITGA2B: the median seed-adjusted z-score is inactive: 0.172. Regarding GGGUGCACCAGAAACAUUATT against VEZF1, the median seed-adjusted z-score is inactive: 0.974. For CGGCUGCCUUCACCUCUUATT against SLC25A45, the median seed-adjusted z-score was inactive: -0.246.

Take CCCUGUCCAUUUGAUGUUATT against SLC25A2: the median seed-adjusted z-score was inactive: 0.586.

Turning to GCAUGCUGAUUGACUCCCATT against TMCO3, the median seed-adjusted z-score is inactive: -0.441.

For the sequence GAAUGAUCGUGAUCCUCGUTT against AHCTF1, the median seed-adjusted z-score was inactive: -0.501. Regarding CCCUCCAAAUAGCAAAUGUTT against PCOLCE2, the median seed-adjusted z-score was active: -1.15. In the case of CCUAUUUGGUGUUAACAUATT against DIRAS1 it was inactive: -0.751. As for AGCCGAUGCUGCUGAGAAATT against ZFAND6, the median seed-adjusted z-score is inactive: -0.181.
